Measurements reported in article PMC6495647.
No constants are given. Whether binding was seen depends on the method and setting.

The chains behind the UniProt entries cited, without tags or fusion partners. Residues count along the entry.
UniProt P02769, residues 25-607: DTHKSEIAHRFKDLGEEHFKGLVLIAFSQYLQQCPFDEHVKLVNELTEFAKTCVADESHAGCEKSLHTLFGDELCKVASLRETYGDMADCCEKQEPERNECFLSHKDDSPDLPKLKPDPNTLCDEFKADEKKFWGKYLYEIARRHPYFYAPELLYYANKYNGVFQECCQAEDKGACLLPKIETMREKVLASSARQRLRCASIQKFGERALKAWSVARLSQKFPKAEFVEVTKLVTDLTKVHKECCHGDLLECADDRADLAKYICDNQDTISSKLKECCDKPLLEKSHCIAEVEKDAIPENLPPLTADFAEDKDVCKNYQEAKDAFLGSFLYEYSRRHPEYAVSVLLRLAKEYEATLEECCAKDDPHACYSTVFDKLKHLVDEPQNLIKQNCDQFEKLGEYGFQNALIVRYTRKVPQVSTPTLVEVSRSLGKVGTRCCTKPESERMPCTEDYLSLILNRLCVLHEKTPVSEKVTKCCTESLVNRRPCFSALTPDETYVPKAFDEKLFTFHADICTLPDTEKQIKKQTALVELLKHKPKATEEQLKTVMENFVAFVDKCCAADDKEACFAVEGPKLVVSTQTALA

Assays:
[1] = biological target: MucB protein (plasmid pKM101 (host species not stated)) (UniProt P07375); experiment: SEC; refolding of denatured MucB on Superdex 200 HR 10/30 in NAT refolding buffer (20 mM HEPES, 100 mM monopotassium glutamate, 500 mM L-arginine, 10% glycerol, 2 mM DTT, 0.1 mM EDTA, 0.5% Tween 20, pH 7.3); LMW peak; both purified
[2] = biological target: Bovine serum albumin (bovine) (UniProt P02769); experiment: SPR; BIAcore 2000; BSA, RecA, MucA’ or β amine-coupled on CM5 chip in four flow cells; refolded MucB (usually 0.1 μM) injected at 30 μl/min in HBS with 1% Surfactant P20; BSA cell subtracted; 25 °C; both purified

B1: MucB protein (enzyme, UniProt P07375 1-420)
chain: MFALIDVNGMYASCEQAFRPDLANRAVAVLSNNDGNIVARNYLAKKAGLKMGDPYFKVRPIIERHNIAIFSSNYTLYASMSARFAAVVESLASHVEQYSIDELFVDCKGITAAMSLDAFGRQLREEVRRHTTLVCGVGIARTKTLAKLCNHAAKTWPATGGVVALDDGARLKKLMSILPVAEVWGVGHRTEKALATMGIKTVLDLARADTRLIRKTFGVVLERTVRELRGEACFSLEENPPAKQQIVVSRSFGQRVETLTDMQQAVTGFAARAAEKLRNERQYCRVISVFIRTSPYSVRDTQYANQATEKLTVATQDSRTIIQAAQALARIWREDIAYAKAGVMLADFSGKEAQLDLFDSATPSAGSEALMAVLDGINRRGKNQLFFAGQGIDNSFAMRRQMLSPDYTTDWRSIPIATIK
binding [1]: no binding (tested: about 25 μg/ml) | binding [2]: no binding (tested: MucB usually 0.1 μM)
